# Data as given in the supplement of paper PMC6411743.
# Chains of the proteins cited; added tags and fusions are not shown. Lines headed by an entry give the natural chain unless they say otherwise; changes in a name come on top.
# UniProt P62633: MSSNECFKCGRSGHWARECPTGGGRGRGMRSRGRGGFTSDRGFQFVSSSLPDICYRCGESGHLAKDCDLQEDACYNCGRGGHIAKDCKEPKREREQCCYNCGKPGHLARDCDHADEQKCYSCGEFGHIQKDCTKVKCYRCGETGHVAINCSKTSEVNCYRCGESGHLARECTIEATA
# UniProt P54136: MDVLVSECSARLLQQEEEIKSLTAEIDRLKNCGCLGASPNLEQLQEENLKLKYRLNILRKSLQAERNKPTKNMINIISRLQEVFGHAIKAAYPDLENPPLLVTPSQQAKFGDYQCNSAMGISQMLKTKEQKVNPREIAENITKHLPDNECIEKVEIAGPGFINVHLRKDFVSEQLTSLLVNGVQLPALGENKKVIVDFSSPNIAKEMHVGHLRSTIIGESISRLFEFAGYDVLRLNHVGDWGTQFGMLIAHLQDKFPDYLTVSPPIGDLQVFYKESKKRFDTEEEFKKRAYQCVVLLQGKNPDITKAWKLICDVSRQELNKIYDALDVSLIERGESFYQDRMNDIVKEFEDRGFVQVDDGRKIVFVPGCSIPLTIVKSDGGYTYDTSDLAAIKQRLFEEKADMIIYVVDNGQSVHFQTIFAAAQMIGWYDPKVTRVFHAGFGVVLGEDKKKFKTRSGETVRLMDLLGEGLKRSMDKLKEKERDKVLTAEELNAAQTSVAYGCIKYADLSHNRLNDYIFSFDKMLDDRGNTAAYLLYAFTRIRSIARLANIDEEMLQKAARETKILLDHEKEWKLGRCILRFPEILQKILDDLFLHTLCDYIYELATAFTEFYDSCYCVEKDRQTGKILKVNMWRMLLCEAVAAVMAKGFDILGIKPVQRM
# UniProt P84103: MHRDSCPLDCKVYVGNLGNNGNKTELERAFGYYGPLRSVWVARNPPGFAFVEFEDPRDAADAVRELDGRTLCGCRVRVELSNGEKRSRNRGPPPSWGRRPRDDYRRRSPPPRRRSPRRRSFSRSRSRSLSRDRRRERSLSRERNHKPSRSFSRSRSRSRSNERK
# UniProt P61224: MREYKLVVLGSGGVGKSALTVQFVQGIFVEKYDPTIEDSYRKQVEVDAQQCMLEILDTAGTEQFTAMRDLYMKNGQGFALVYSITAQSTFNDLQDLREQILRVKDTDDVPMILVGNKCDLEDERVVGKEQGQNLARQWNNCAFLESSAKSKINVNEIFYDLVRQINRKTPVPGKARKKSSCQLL
# UniProt P54886: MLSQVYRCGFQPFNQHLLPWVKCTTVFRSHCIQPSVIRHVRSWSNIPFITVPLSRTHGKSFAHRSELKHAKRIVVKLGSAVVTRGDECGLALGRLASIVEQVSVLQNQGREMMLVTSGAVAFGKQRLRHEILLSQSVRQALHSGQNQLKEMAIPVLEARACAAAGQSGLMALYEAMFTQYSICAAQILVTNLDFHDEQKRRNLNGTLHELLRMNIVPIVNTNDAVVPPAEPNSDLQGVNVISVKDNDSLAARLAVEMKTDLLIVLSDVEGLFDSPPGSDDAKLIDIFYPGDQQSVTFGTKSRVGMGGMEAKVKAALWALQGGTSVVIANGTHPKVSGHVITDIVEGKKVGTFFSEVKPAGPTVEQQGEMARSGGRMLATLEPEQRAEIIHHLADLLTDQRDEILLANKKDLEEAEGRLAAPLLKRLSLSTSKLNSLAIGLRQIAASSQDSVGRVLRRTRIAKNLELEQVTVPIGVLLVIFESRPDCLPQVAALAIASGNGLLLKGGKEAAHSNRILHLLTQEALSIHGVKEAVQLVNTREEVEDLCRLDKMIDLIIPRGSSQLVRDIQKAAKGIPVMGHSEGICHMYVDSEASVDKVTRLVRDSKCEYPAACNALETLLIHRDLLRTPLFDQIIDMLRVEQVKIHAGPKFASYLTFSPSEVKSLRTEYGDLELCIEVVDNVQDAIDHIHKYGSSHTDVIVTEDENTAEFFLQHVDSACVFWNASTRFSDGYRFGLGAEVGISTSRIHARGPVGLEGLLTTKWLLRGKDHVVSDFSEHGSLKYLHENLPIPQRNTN
# UniProt P61758, whole entry: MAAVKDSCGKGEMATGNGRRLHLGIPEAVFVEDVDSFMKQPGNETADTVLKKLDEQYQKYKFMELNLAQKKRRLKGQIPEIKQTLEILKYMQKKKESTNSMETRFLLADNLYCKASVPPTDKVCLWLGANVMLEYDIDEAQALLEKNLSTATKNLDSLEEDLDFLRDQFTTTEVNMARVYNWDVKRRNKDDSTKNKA
# UniProt P53671: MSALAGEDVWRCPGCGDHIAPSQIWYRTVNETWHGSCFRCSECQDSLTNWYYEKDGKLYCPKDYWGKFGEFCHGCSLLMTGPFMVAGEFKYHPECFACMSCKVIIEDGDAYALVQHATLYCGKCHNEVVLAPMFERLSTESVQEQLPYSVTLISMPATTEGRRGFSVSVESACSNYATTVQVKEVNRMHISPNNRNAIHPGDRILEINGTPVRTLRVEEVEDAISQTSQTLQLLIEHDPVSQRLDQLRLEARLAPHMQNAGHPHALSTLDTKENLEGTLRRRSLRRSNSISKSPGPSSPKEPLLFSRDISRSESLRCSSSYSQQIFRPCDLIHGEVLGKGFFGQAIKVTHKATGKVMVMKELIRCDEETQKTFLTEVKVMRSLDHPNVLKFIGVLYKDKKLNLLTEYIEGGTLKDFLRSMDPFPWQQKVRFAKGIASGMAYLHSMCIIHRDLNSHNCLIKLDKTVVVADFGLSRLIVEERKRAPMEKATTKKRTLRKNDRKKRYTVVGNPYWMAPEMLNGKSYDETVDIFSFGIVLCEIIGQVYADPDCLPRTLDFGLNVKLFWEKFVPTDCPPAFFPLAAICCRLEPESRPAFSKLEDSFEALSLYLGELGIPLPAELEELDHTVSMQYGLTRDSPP
# UniProt P62195, whole entry: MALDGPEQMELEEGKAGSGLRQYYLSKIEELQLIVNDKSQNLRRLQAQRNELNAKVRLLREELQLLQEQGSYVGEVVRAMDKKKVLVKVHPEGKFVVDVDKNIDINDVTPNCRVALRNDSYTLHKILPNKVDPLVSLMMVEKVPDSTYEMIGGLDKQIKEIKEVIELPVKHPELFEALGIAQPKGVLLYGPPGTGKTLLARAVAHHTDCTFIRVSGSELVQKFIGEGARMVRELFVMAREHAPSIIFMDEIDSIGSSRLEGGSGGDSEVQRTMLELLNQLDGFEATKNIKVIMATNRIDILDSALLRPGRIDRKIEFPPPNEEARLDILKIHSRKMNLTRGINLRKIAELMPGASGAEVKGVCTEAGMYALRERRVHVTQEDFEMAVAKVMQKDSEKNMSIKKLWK
# UniProt P54652, whole entry: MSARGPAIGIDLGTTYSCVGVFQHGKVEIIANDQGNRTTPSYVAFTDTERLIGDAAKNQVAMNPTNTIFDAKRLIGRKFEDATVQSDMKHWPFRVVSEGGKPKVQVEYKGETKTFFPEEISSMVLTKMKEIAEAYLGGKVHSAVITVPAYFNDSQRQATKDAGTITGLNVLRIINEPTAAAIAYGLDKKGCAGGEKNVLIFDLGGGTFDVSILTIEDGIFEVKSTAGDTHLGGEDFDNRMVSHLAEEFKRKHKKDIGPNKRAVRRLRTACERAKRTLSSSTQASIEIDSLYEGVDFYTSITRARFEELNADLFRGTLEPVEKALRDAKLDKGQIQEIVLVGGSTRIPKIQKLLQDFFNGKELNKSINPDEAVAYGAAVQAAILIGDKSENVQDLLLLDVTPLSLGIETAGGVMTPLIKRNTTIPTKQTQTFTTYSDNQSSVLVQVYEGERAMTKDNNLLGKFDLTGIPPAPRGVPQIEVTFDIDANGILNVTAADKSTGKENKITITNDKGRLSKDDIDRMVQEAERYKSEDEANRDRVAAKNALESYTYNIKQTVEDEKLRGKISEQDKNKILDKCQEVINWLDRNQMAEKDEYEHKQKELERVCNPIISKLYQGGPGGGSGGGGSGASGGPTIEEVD
# UniProt P60174, whole entry: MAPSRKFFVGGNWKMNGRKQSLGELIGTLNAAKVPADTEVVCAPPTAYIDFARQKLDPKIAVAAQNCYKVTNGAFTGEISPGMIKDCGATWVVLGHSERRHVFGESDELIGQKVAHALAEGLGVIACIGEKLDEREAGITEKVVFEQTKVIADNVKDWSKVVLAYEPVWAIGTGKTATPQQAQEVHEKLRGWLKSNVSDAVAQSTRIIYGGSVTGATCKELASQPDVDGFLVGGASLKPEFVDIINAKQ
# UniProt P57081: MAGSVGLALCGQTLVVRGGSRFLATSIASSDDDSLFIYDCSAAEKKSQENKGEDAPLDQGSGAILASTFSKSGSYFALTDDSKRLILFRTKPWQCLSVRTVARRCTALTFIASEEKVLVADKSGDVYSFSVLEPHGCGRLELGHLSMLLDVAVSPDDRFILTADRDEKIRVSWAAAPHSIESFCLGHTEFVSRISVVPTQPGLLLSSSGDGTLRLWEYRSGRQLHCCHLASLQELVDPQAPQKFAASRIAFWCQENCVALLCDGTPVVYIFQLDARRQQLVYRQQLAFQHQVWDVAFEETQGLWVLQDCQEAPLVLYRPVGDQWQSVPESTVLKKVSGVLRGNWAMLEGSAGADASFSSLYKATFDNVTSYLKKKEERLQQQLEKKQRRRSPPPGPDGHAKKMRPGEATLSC
# UniProt P54105: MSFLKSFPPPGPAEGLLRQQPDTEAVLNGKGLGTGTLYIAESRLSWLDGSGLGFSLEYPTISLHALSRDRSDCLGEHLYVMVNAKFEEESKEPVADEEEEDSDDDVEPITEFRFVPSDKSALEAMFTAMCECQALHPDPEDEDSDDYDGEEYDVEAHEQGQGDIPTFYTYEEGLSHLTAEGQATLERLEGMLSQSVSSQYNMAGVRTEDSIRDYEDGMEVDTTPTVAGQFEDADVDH
# UniProt P53007, whole entry, looked up: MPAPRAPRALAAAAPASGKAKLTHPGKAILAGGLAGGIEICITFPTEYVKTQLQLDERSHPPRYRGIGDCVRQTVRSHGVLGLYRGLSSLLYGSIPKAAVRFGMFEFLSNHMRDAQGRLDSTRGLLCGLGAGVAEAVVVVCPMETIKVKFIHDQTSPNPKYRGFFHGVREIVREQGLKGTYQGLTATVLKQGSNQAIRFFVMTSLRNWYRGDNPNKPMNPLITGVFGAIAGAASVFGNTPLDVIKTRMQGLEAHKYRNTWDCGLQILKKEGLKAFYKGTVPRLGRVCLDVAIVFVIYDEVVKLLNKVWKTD
# UniProt P62993, whole entry, looked up: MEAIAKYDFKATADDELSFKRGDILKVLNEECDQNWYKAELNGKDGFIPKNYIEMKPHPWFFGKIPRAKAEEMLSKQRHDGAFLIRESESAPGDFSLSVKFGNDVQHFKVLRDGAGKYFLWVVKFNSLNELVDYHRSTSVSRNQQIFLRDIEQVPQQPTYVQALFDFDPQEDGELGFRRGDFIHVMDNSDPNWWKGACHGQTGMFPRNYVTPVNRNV
# UniProt P55795: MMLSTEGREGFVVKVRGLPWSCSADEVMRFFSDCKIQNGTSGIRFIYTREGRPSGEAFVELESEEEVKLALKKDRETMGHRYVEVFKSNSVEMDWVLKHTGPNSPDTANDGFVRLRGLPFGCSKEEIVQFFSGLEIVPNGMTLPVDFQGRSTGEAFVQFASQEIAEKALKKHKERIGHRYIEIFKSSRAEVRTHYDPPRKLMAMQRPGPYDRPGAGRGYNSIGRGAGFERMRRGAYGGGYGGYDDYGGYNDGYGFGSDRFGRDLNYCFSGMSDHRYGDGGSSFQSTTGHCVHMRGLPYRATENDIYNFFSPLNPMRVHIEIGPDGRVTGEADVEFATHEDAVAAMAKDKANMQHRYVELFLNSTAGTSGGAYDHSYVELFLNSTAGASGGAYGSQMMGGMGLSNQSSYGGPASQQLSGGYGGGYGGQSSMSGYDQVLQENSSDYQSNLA
# UniProt P68036, whole entry: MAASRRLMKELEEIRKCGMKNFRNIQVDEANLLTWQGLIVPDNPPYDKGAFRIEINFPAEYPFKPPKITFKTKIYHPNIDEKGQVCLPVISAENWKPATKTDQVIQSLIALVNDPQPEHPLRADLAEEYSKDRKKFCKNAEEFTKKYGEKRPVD
# UniProt P55211: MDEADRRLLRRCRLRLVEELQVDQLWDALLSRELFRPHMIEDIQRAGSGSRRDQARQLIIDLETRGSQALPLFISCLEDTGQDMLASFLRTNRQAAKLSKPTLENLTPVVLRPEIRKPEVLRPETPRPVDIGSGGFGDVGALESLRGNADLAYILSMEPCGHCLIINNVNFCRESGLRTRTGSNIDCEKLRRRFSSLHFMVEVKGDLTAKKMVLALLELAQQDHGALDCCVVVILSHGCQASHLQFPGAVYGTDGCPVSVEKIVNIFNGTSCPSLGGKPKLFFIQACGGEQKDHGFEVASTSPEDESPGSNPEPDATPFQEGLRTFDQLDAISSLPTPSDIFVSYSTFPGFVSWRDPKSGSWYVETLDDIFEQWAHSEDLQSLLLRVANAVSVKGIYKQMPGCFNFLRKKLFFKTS
# UniProt P62258: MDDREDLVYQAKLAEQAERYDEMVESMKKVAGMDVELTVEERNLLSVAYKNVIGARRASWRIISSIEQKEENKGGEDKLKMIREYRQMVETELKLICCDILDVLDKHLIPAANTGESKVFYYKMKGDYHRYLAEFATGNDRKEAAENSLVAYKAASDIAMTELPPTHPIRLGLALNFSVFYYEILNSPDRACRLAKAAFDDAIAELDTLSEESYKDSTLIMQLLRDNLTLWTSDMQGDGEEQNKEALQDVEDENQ
# ± gives the standard deviation of the averaged measurements. Only a part is listed here, and it is no random draw. Small differences around the control level are noise.
# Compound: Nc1ncnc2c1ncn2[C@@H]1O[C@H](COP(=O)(O)OP(=O)(O)OP(=O)(O)O)[C@@H](O)[C@H]1O [adenosine triphosphate]
# Test: NP40-soluble protein abundance relative to vehicle (solubility fold change) (ratio); higher = more soluble protein in presence of ATP
# Method in brief: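 Crude Jurkat lysate, prepared by Dounce homogenisation, was exposed to eight concentrations from 0.1 to 10 mM for 10 min at room temperature and then 3 min at 37 °C. Solubilisation used 0.8% NP40 with benzonase for 60 min at 4 °C, followed by ultracentrifugation and TMT labelling of the supernatant for LC-MS/MS. After vsn normalisation of intensities, each value is the fold change against the detergent-processed vehicle within each replicate, across three independent experiments.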
Target,NP40-soluble protein abundance (concentration: 0.1mM),NP40-soluble protein abundance (concentration: 0.5mM)
S100A10 (UniProt P60903),0.918 ± 0.078,0.871 ± 0.19
UniProt P62330,1.06 ± 0.097,1.08 ± 0.081
UniProt P83876,1.09 ± 0.077,1.17 ± 0.14
ROMO1 (UniProt P60602),0.919 ± 0.054,0.849 ± 0.15
UniProt Q00536 and related entries,0.978 ± 0.025,0.997 ± 0.028
UniProt P62249,0.873 ± 0.1,0.824 ± 0.12
UniProt P62633 and related entries,1.06 ± 0.061,1.02 ± 0.058
MRPS9 (UniProt P82933),0.987 ± 0.092,1 ± 0.06
UniProt P54136 and related entries,1.03 ± 0.045,1.04 ± 0.023
UniProt P84103 and related entries,1.07 ± 0.014,1.239 ± 0.0066
UniProt P61224 and related entries,0.951 ± 0.053,1 ± 0.011
UniProt P98095 and related entries,0.985 ± 0.075,0.982 ± 0.025
UniProt P53778 and related entries,1.09 ± 0.066,1.04 ± 0.053
UniProt P61129,0.934 ± 0.098,0.957 ± 0.072
UniProt P56270-2,0.989 ± 0.029,1 ± 0.02
UniProt P78310 and related entries,0.949 ± 0.083,0.913 ± 0.039
UniProt P55036 and related entries,0.974 ± 0.058,0.946 ± 0.05
RPS3A (UniProt P61247),0.893 ± 0.11,0.864 ± 0.11
UniProt P54886 and related entries,1.04 ± 0.068,1.03 ± 0.03
CTSC (UniProt P53634),0.98 ± 0.062,1.02 ± 0.099
UniProt P54619 and related entries,1.01 ± 0.081,1.03 ± 0.033
EEF1A1 (UniProt P68104),0.971 ± 0.12,1.01 ± 0.036
VBP1 (UniProt P61758),0.937 ± 0.092,0.888 ± 0.071
FKBP3 (UniProt Q00688),0.956 ± 0.036,0.995 ± 0.028

Target,NP40-soluble protein abundance (concentration: 0.1mM),NP40-soluble protein abundance (concentration: 0.5mM)
LMO4 (UniProt P61968),0.926 ± 0.032,1 ± 0.049
PMS2 (UniProt P54278),1.16 ± 0.052,1.2 ± 0.012
UniProt P61160,1.02 ± 0.056,1.06 ± 0.051
RPS27A (UniProt P62979),0.914 ± 0.2,0.905 ± 0.2
UniProt P62877,0.962 ± 0.068,0.98 ± 0.023
UniProt P63151,1.06 ± 0.073,1.06 ± 0.074
UniProt P62899,0.943 ± 0.16,0.897 ± 0.16
UniProt P54725 and related entries,0.891 ± 0.036,0.857 ± 0.08
UniProt P53671 and related entries,1.09 ± 0.018,1.1 ± 0.038
RRP1 (UniProt P56182),0.994 ± 0.025,1.02 ± 0.025
UniProt P68366 and related entries,1.04 ± 0.13,1.04 ± 0.054
UniProt P62857,0.899 ± 0.18,0.807 ± 0.094
CD81 (UniProt P60033),0.933 ± 0.042,0.901 ± 0.1
UniProt P60763,1.02 ± 0.026,1.05 ± 0.051
METAP1 (UniProt P53582),1.08 ± 0.063,1.15 ± 0.11
UniProt Q00325 and related entries,0.911 ± 0.034,0.916 ± 0.079
UniProt P62256 and related entries,0.95 ± 0.042,0.942 ± 0.056
DYNLT1 (UniProt P63172),0.922 ± 0.069,0.992 ± 0.08
UniProt P60891,0.9675 ± 0.0038,1.01 ± 0.038
UBXN2A (UniProt P68543),1 ± 0.046,0.949 ± 0.067
UniProt P62995 and related entries,0.941 ± 0.12,1.13 ± 0.14
NAA20 (UniProt P61599),1.12 ± 0.16,1.03 ± 0.13
UniProt P62314,0.928 ± 0.062,0.973 ± 0.099
NCS1 (UniProt P62166),1.08 ± 0.039,0.994 ± 0.0034

Target,NP40-soluble protein abundance (concentration: 0.1mM),NP40-soluble protein abundance (concentration: 0.5mM)
UniProt P62195 and related entries,1.01 ± 0.029,0.966 ± 0.034
HSPA2 (UniProt P54652),0.979 ± 0.037,0.92 ± 0.033
UniProt P82912 and related entries,0.982 ± 0.043,1.02 ± 0.067
UniProt P60174 and related entries,0.966 ± 0.037,0.974 ± 0.018
SLC5A3 (UniProt P53794),1.13 ± 0.11,1.1 ± 0.25
UniProt P57081 and related entries,1.05 ± 0.091,1.03 ± 0.046
UniProt P78344 and related entries,0.9526 ± 0.0035,0.975 ± 0.03
CLNS1A (UniProt P54105),0.917 ± 0.077,0.872 ± 0.079
PPP5C (UniProt P53041),1.03 ± 0.067,1.04 ± 0.056
UniProt P62879,1.01 ± 0.021,0.985 ± 0.021
UniProt P55884 and related entries,0.973 ± 0.031,0.961 ± 0.077
UniProt P62380 and related entries,0.911 ± 0.01,0.917 ± 0.17
IGBP1 (UniProt P78318),0.957 ± 0.1,0.927 ± 0.1
SLC25A1 (UniProt P53007),0.932 ± 0.022,0.943 ± 0.05
RPL10A (UniProt P62906),1.02 ± 0.036,1.06 ± 0.038
UniProt P61313,0.988 ± 0.11,0.959 ± 0.098
UniProt P62491,1.15 ± 0.17,1.18 ± 0.1
COG7 (UniProt P83436),0.952 ± 0.053,0.947 ± 0.038
GTF2B (UniProt Q00403),1.002 ± 0.0091,1 ± 0.012
NUP107 (UniProt P57740),1.04 ± 0.06,1.04 ± 0.064
UniProt P62241,0.908 ± 0.078,0.861 ± 0.065
MRPS5 (UniProt P82675),0.97 ± 0.092,1.01 ± 0.083
UniProt P62875,0.845 ± 0.17,0.895 ± 0.2
ATN1 (UniProt P54259),0.974 ± 0.18,0.993 ± 0.018

Target,NP40-soluble protein abundance (concentration: 0.1mM),NP40-soluble protein abundance (concentration: 0.5mM)
CCT2 (UniProt P78371),1 ± 0.034,1 ± 0.052
UniProt P60953 and related entries,0.92 ± 0.085,0.982 ± 0.099
UniProt P63000 and related entries,1.05 ± 0.071,1.03 ± 0.071
RAB4B (UniProt P61018),0.997 ± 0.059,0.966 ± 0.036
GRB2 (UniProt P62993),1.04 ± 0.054,1.01 ± 0.069
UniProt P63220 and related entries,0.877 ± 0.14,0.834 ± 0.15
BLVRA (UniProt P53004),1.04 ± 0.089,1.05 ± 0.077
DSTN (UniProt P60981),0.986 ± 0.061,1.01 ± 0.058
MTPN (UniProt P58546),0.862 ± 0.12,0.784 ± 0.075
COPB1 (UniProt P53618),1.03 ± 0.068,1.04 ± 0.029
UniProt P61604 and related entries,0.91 ± 0.067,0.888 ± 0.039
COPA (UniProt P53621),1.01 ± 0.061,1.02 ± 0.029
UniProt P62280,0.897 ± 0.15,0.892 ± 0.14
CDK5 (UniProt Q00535),1.02 ± 0.062,1.03 ± 0.027
OXCT1 (UniProt P55809),1.04 ± 0.067,1.04 ± 0.056
ADK (UniProt P55263),1.01 ± 0.063,1.05 ± 0.054
UniProt P62081,0.937 ± 0.091,0.941 ± 0.077
HNRNPH2 (UniProt P55795),1.08 ± 0.033,1.07 ± 0.065
PPP1CA (UniProt P62136),0.983 ± 0.036,0.995 ± 0.057
UniProt P62269,0.872 ± 0.14,0.83 ± 0.15
UniProt P68036,0.935 ± 0.16,0.906 ± 0.14
UniProt P62318 and related entries,0.987 ± 0.033,1.06 ± 0.1
UniProt P61073 and related entries,0.944 ± 0.035,0.932 ± 0.084
CASP9 (UniProt P55211),1.07 ± 0.031,1.05 ± 0.092

Target,NP40-soluble protein abundance (concentration: 0.1mM),NP40-soluble protein abundance (concentration: 0.5mM)
UniProt P98194-5|P98194-6|P98194-7|P98194-8|P98194-9|B4E2Q0 and related entries,1.11 ± 0.068,1.06 ± 0.089
UniProt P61964,0.945 ± 0.029,0.958 ± 0.036
SRP54 (UniProt P61011),0.988 ± 0.024,1.01 ± 0.066
AP1S2 (UniProt P56377),1.01 ± 0.018,1.02 ± 0.063
RAD23B (UniProt P54727),0.905 ± 0.064,0.867 ± 0.053
UniProt P62140,1.02 ± 0.03,1.03 ± 0.047
UniProt P62310,1.02 ± 0.052,0.988 ± 0.07
B2M (UniProt P61769),0.984 ± 0.049,1 ± 0.018
UniProt P62244 and related entries,0.89 ± 0.1,0.852 ± 0.1
UniProt P61081,1.01 ± 0.045,1 ± 0.029
UniProt P78332 and related entries,0.986 ± 0.023,1.02 ± 0.028
UniProt P62277,0.902 ± 0.14,0.83 ± 0.13
UniProt P61966,0.969 ± 0.048,0.942 ± 0.12
UniProt P53805 and related entries,0.898 ± 0.03,0.923 ± 0.023
UniProt P62258,0.951 ± 0.012,0.945 ± 0.021
HIRA (UniProt P54198),1.01 ± 0.11,1.04 ± 0.064
MRPS15 (UniProt P82914),0.869 ± 0.13,0.904 ± 0.13
UniProt P53990 and related entries,1.04 ± 0.069,1.15 ± 0.023
UniProt P60866 and related entries,0.928 ± 0.13,0.901 ± 0.072
UniProt P98155 and related entries,0.988 ± 0.035,0.985 ± 0.014
POLR2K (UniProt P53803),0.9902 ± 0.0094,1.045 ± 0.0093
UniProt P78527,1.09 ± 0.068,1.17 ± 0.038
MRPS35 (UniProt P82673),0.949 ± 0.1,0.968 ± 0.08
UniProt P61163,1.04 ± 0.03,1.04 ± 0.043

# Single values from the results shown:
# Entry for UniProt P61163 under NP40-soluble protein abundance (concentration: 0.1mM): 1.04 ± 0.03
# Entry for MRPS15 (UniProt P82914) under NP40-soluble protein abundance (concentration: 0.5mM): 0.904 ± 0.13
# Entry for UniProt P78527 under NP40-soluble protein abundance (concentration: 0.5mM): 1.17 ± 0.038
# Entry for UniProt P98194-5|P98194-6|P98194-7|P98194-8|P98194-9|B4E2Q0 and related entries under NP40-soluble protein abundance (concentration: 0.1mM): 1.11 ± 0.068
# Entry for UniProt P78332 and related entries under NP40-soluble protein abundance (concentration: 0.5mM): 1.02 ± 0.028
# Entry for UniProt P98155 and related entries under NP40-soluble protein abundance (concentration: 0.1mM): 0.988 ± 0.035
